# Laboratory results published in article PMC11955279.
# Amino acid sequences for entries named in this document (tags omitted). A change or cut given only in a name is not applied to a line headed by its entry.
# UniProt O22456: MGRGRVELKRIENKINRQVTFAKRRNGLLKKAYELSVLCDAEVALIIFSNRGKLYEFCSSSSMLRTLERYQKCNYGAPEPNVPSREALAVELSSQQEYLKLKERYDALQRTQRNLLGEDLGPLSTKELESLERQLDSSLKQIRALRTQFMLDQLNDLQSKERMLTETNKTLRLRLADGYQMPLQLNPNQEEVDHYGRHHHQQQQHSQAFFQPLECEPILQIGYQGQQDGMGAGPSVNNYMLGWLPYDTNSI
# Tests used:
# [1] = molecular target: GST-AtSEP3-DT5 L116A (Arabidopsis thaliana) (UniProt O22456); experiment: EMSA; details: lane 2 is named SEP3-T5 in the legend, probably DT5; Room temperature; chemiluminescent EMSA kit GS009 (Biyun Tian); salt and pH not given; recombinant protein; residues 1-251; protein details: GST (pGEX-4T-3); label: biotin
# [2] = molecular target: GST-AtSEP3-T5 L99A,L101A,L108A,L115A,L116A (Arabidopsis thaliana) (UniProt O22456); experiment: EMSA; details: Room temperature; chemiluminescent EMSA kit GS009 (Biyun Tian); salt and pH not given; recombinant protein; residues 1-251; protein details: GST (pGEX-4T-3); label: biotin
# [3] = molecular target: GST-AtSEP3 (wild type) (Arabidopsis thaliana) (UniProt O22456); experiment: EMSA; details: Room temperature; chemiluminescent EMSA kit GS009 (Biyun Tian); salt and pH not given; recombinant protein; residues 1-251; protein details: GST (pGEX-4T-3); label: biotin
# [4] = molecular target: GST-AtSEP3 (wild type) (Arabidopsis thaliana) (UniProt O22456); experiment: competition with a labelled probe; details: unlabeled probe lowers the band of labeled N1; Room temperature; chemiluminescent EMSA kit GS009 (Biyun Tian); salt and pH not given; recombinant protein; residues 1-251; protein details: GST (pGEX-4T-3)
Sequence,binding result [1],binding result [2],binding result [3],binding result [4]
"TTTTCTAGGGCTTCCATTTTTGGATTTTTTGATTAGCC (double strand) [AP1 probe (single CArG box), labeled]",binds more weakly,binds more weakly,binds,–
"TTTTCTAGGGCTTCCATTTTTGGATTTTTTGATTAGCC (double strand) [AP1 probe, unlabeled competitor]",–,–,–,binds

# Construct, isoform or probe ends are uncertain for at least one entry. For some of these results: A weaker result is weaker than the reference pair of the same experiment.
